Reference: PubChem BioAssay AID686938 (Drosophila RNAi Screening Center, 2013)

Assay: 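Looking for CRAC channel components and the factors controlling them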 (primary screen)
Cells: Drosophila S2R+ cells
Knock-down reagent: long dsRNA against Drosophila genes, about 0.25 µg dsRNA per well, roughly 10,000 cells
Duration: 5 days of knock-down before the calcium assay
Treatment: thapsigargin (SERCA pump blocker) to empty calcium stores; entry signal taken 4 min after adding it
Measured: 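Per-well fluo-4 fluorescence in two replicates, unnormalised, measured in resting cells and 4 min after store depletion by the SERCA blocker thapsigargin; ratio of the two present in few wells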
Direction: calcium entry signal: higher = stronger calcium signal after store depletion; entry to resting ratio: higher = more calcium entry relative to resting level; resting calcium signal: higher = higher resting calcium signal
Units: calcium entry signal in fluorescence units; resting calcium signal in fluorescence units
Hit rule: 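Hit if the duplicate-averaged plate z-score for entry over resting signal is under −3; wells with weak total dye signal (Fmax z < −2) or more than 5 off-targets removed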
Calls: active = strongly reduced calcium entry; inactive = no strong reduction
In all, the deposit lists about 23,000 reagents; this is a random part of those with a known target gene and a result. In the full data, 75 (0.33%) got an active call. 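Raw plate signals without normalisation; calls rest on plate z-scores that were not deposited; ratio present for only 364 wells.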 Names joined by + are all predicted targets of the reagent. The record does not give: the dose of the treatment.

| gene | dsRNA | calcium entry signal, replicate 1 | calcium entry signal, replicate 2 | entry to resting ratio | resting calcium signal, replicate 1 | resting calcium signal, replicate 2 | outcome |
| --- | --- | --- | --- | --- | --- | --- | --- |
| Acsl | DRSC07252 | 4.89e7 | 5.29e7 | – | 1.96e7 | 2.36e7 | inactive |
| Ube3a | DRSC10600 | 4.62e7 | 2.72e7 | – | 2.86e7 | 1.29e7 | inactive |
| Ctps | DRSC09342 | 4.00e7 | 4.31e7 | – | 1.88e7 | 2.24e7 | inactive |
| Ctps | DRSC10728 | 3.93e7 | 4.49e7 | – | 1.91e7 | 3.06e7 | inactive |
| Ctps | DRSC10729 | 3.94e7 | 4.86e7 | – | 2.20e7 | 2.12e7 | inactive |
| Eglp1 | DRSC04502 | 4.24e7 | – | – | 2.30e7 | – | inactive |
| Fnta | DRSC00557 | 3.45e7 | – | – | 1.70e7 | – | inactive |
| Fntb | DRSC15244 | 3.15e7 | 2.83e7 | – | 1.50e7 | 1.37e7 | inactive |
| Mnt | DRSC17894 | 4.17e7 | 4.38e7 | – | 1.91e7 | 2.25e7 | inactive |
| Mnt | DRSC18480 | 1.80e7 | 2.77e7 | – | 9.22e6 | 1.40e7 | inactive |
| RNaseZ | DRSC06845 | 4.98e7 | 4.18e7 | – | 2.04e7 | 1.86e7 | inactive |
| Dbp45A | DRSC07395 | 3.76e7 | 4.08e7 | – | 1.66e7 | 1.81e7 | inactive |
| PK2-R2 | DRSC16448 | 2.87e7 | 5.40e7 | – | 1.50e7 | 8.80e7 | inactive |
| edl | DRSC06516 | 4.52e7 | 4.06e7 | – | 2.06e7 | 1.97e7 | inactive |
| Cyt-c1 | DRSC10447 | 6.03e7 | 5.08e7 | – | 3.63e7 | 1.89e7 | inactive |
| Ac78C | DRSC11467 | 3.34e7 | 3.02e7 | – | 1.75e7 | 1.50e7 | inactive |
| Ac78C | DRSC11602 | 3.34e7 | 4.92e7 | – | 1.62e7 | 2.12e7 | inactive |
| Ac78C | DRSC11619 | 2.77e7 | 4.51e7 | – | 1.38e7 | 1.94e7 | inactive |
| dac | DRSC03518 | 4.46e7 | 3.58e7 | – | 2.06e7 | 1.78e7 | inactive |
| CG6765 | DRSC10706 | 2.71e7 | 3.72e7 | – | 1.38e7 | 1.67e7 | inactive |
| CG13362 | DRSC17897 | 5.01e7 | 4.62e7 | 2.1 | 2.41e7 | 2.06e7 | inactive |
| obst-E | DRSC02128 | 4.30e7 | – | – | 2.02e7 | – | inactive |
| cdm | DRSC16213 | 5.65e7 | 3.51e7 | – | 2.57e7 | 1.44e7 | inactive |
| CG4496 | DRSC02753 | 3.63e7 | 3.81e7 | – | 1.80e7 | 1.82e7 | inactive |
| Nil | DRSC15953 | 2.79e7 | 5.30e7 | – | 1.59e7 | 2.31e7 | inactive |
| Nil | DRSC23322 | 3.13e7 | 4.19e7 | – | 1.57e7 | 1.94e7 | inactive |
| Mccc1 | DRSC15417 | 3.78e7 | 4.21e7 | – | 1.77e7 | 2.00e7 | inactive |
| CG17264 | DRSC00500 | 3.58e7 | – | – | 2.04e7 | – | inactive |
| gw | DRSC17135 | 3.64e7 | 3.88e7 | – | 1.77e7 | 1.68e7 | inactive |
| gw | DRSC17160 | 3.14e7 | 4.02e7 | 2 | 1.59e7 | 1.92e7 | inactive |
| CG32032 | DRSC08961 | 5.21e7 | 6.80e7 | – | 2.36e7 | 3.00e7 | inactive |
| CG1409 | DRSC17910 | 3.31e7 | 2.62e7 | – | 1.58e7 | 1.25e7 | inactive |
| Noc2 | DRSC03165 | 2.49e7 | – | – | 1.30e7 | – | inactive |
| Aduk | DRSC16451 | 2.08e7 | 2.38e7 | – | 1.14e7 | 1.22e7 | inactive |
| Vha16-3 | DRSC10872 | 3.11e7 | 4.47e7 | – | 1.71e7 | 2.27e7 | inactive |
| CG12589 | DRSC12215 | 2.35e7 | 4.99e7 | – | 1.09e7 | 1.96e7 | inactive |
| Oct-TyrR | DRSC11883 | 3.08e7 | 5.69e7 | – | 1.53e7 | 2.53e7 | inactive |
| CG34337 | DRSC18435 | 3.27e7 | 3.59e7 | – | 1.63e7 | 1.77e7 | inactive |
| Dtwd2 | DRSC12501 | 4.30e7 | 4.59e7 | – | 2.15e7 | 2.12e7 | inactive |
| Pkn + Tsen15 | DRSC21969 | 3.53e7 | 3.34e7 | – | 2.02e7 | 1.43e7 | inactive |
| tomboy20 | DRSC14913 | 3.44e7 | 3.40e7 | – | 1.70e7 | 1.72e7 | inactive |
| Prosbeta5R1 | DRSC04581 | 2.14e7 | 2.34e7 | – | 1.11e7 | 1.09e7 | inactive |
| CG15611 | DRSC06563 | 2.33e7 | 2.40e7 | – | 1.03e7 | 1.16e7 | inactive |
| CG15611 | DRSC06564 | 4.93e7 | 4.52e7 | – | 2.16e7 | 2.20e7 | inactive |
| Dgk | DRSC05064 | 3.42e7 | 3.46e7 | – | 1.68e7 | 1.60e7 | inactive |
| Dgk | DRSC05065 | 3.02e7 | 3.44e7 | – | 1.52e7 | 1.61e7 | inactive |
| Dgk | DRSC06171 | 5.59e7 | 3.31e7 | – | 2.17e7 | 1.46e7 | inactive |
| Dgk | DRSC06782 | 2.31e7 | 4.89e7 | – | 1.01e7 | 2.26e7 | inactive |
| Dgk | DRSC22236 | 3.80e7 | 5.72e7 | – | 1.99e7 | 2.74e7 | inactive |

Copied from the list:
Result of Aduk [DRSC16451] in “resting calcium signal, replicate 1”: 1.14e7
edl [DRSC06516], calcium entry signal, replicate 1 → 4.52e7
For “outcome”, Dgk [DRSC22236] shows inactive
Under “outcome”, CG1409 [DRSC17910] has inactive
Ctps [DRSC10728], resting calcium signal, replicate 1 = 1.91e7
Entry of tomboy20 [DRSC14913] in “resting calcium signal, replicate 1”: 1.70e7

The results go on.
| gene | dsRNA | calcium entry signal, replicate 1 | calcium entry signal, replicate 2 | entry to resting ratio | resting calcium signal, replicate 1 | resting calcium signal, replicate 2 | outcome |
| --- | --- | --- | --- | --- | --- | --- | --- |
| CG3199 | DRSC15467 | 2.13e7 | 3.61e7 | – | 1.06e7 | 5.49e7 | inactive |
| CG6923 | DRSC16136 | 3.23e7 | 3.79e7 | – | 1.43e7 | 1.65e7 | inactive |
| CaMKI | DRSC17162 | 3.00e7 | 4.01e7 | – | 1.49e7 | 1.80e7 | inactive |
| CG30355 | DRSC21958 | 3.55e7 | 6.75e7 | – | 1.77e7 | 3.09e7 | inactive |
| CG12853 | DRSC06193 | 3.53e7 | 2.94e7 | – | 1.88e7 | 1.72e7 | inactive |
| ND-MLRQ | DRSC11913 | 3.32e7 | 3.61e7 | – | 1.62e7 | 1.67e7 | inactive |
| CaMKII | DRSC17214 | 3.74e7 | 4.50e7 | – | 1.61e7 | 1.92e7 | inactive |
| trp | DRSC17088 | 3.53e7 | 5.91e7 | – | 1.85e7 | 2.45e7 | inactive |
| CG11449 | DRSC11662 | 2.97e7 | 5.17e7 | – | 1.45e7 | 2.23e7 | inactive |
| Saf6 | DRSC00633 | 3.38e7 | – | – | 2.09e7 | – | inactive |
| knrl | DRSC11892 | 3.24e7 | 4.37e7 | – | 1.63e7 | 3.15e7 | inactive |
| knrl | DRSC23245 | 4.30e7 | 3.68e7 | – | 2.49e7 | 1.70e7 | inactive |
| l(3)psg2 | DRSC10484 | 3.74e7 | 2.33e7 | – | 2.70e7 | 1.03e7 | inactive |
| CG8642 | DRSC07228 | 4.32e7 | 4.28e7 | – | 1.96e7 | 1.82e7 | inactive |
| c12.1 | DRSC18750 | 3.56e7 | 4.64e7 | – | 1.89e7 | 2.51e7 | inactive |
| Cec2 | DRSC21885 | 2.82e7 | 3.62e7 | – | 1.24e7 | 1.82e7 | inactive |
| asRNA:CR43259 + CG31089 | DRSC15934 | 4.19e7 | 5.50e7 | – | 2.17e7 | 2.25e7 | inactive |
| CG14631 | DRSC17792 | 3.60e7 | 5.43e7 | 2 | 1.79e7 | 2.34e7 | inactive |
| CG14631 | DRSC17941 | 3.27e7 | 4.82e7 | 2 | 1.61e7 | 2.13e7 | inactive |
| Alg1 | DRSC15297 | 3.91e7 | 3.42e7 | – | 1.91e7 | 1.53e7 | inactive |
| Fum3 | DRSC10592 | 2.84e7 | 4.42e7 | – | 1.53e7 | 1.98e7 | inactive |
| smid | DRSC11398 | 2.47e7 | 4.82e7 | – | 1.25e7 | 2.08e7 | inactive |
| CG31706 | DRSC22704 | 3.74e7 | 3.98e7 | – | 2.02e7 | 1.72e7 | inactive |
| CG11018 | DRSC06024 | 3.18e7 | 2.78e7 | – | 1.49e7 | 1.43e7 | inactive |
| Usp7 | DRSC18909 | 2.49e7 | 4.03e7 | – | 1.15e7 | 1.55e7 | inactive |
| Usp7 | DRSC19604 | 4.57e7 | 6.75e7 | – | 2.16e7 | 3.07e7 | inactive |
